The other results are listed elsewhere or left out.

By UniProt entry, the sequences of proteins in these tests, tags left out.
UniProt Q0JBA9, entry or part of it: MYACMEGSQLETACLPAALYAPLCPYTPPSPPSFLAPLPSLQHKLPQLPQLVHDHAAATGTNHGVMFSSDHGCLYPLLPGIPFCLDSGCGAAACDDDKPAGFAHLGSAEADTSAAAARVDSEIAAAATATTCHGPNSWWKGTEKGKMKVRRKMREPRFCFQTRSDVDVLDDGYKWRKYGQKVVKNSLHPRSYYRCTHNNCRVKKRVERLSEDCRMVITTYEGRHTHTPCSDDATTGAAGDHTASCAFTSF

In this assay the target is OsWRKY34 (Oryza sativa, UniProt Q0JBA9 1-250). Put plainly: protein-binding microarray (RPBM); PBS, 2% BSA, 51.3 ng/ul salmon testes DNA, 50 uM zinc acetate, 200 nM TF, 25 C, 1 h; high values mean tight binding. As to conditions: protein: recombinant; tags: N-terminal polyhistidine and DsRed monomer fusion (pET32a); label: CyDye5-dUTP incorporated in the synthesized complementary strand; 3' TTTTT single-stranded linker to array surface; dsDNA, one strand shown. In outline:
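The binding signal for each feature is its fluorescence intensity in arbitrary units. An Axon 4000B scanner was used to read a custom Agilent array that had been made double-stranded with Cy5-dUTP primer extension, blocked with 2% BSA, incubated at 25 °C for 1 h with 200 nM protein in PBS, 2% BSA, salmon testes DNA and 50 µM zinc acetate, and washed. The protein was an N-terminal polyhistidine–DsRed transcription factor fusion from E. coli BL21-CodonPlus, purified on Ni–NTA.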
Consider “TCTGTGGCCAGTTTTCGTCGACATGTTACTCCGCAGAAGTCGGAGTCACCTAGTGCAG”, for which the binding signal is 8870 fluorescence intensity (a.u.).

Take “CTATTCTTGTGTTTTTTTCTATGTTTAATCCTATGTTTTACGGAGTCACCTAGTGCAG”: the binding signal was 16600 fluorescence intensity (a.u.).

As for “CTCTATTCCCCTTTTCTTTCTTTTGGCGCACTATTCATTGCGGAGTCACCTAGTGCAG”, the binding signal was 8180 fluorescence intensity (a.u.).

For “TGGGCGGGTGTGTCGGATGTTGACGATGGCGAAGGAGAGGCGGAGTCACCTAGTGCAG”, the binding signal is 11300 fluorescence intensity (a.u.).

With “ACTCGGCCTTCGTTCAAATTTCAGCCCGTTAGGCTTCGTACGGAGTCACCTAGTGCAG”, the binding signal is 10400 fluorescence intensity (a.u.).

In the case of “GCTGCCATCACCTATGTAGACCCCTGCCACCAACCGTGCTCGGAGTCACCTAGTGCAG”, the binding signal is 8140 fluorescence intensity (a.u.).

Turning to “TATATATATATATATATATATATTCACAAATTATTTTTCACGGAGTCACCTAGTGCAG”, the binding signal was 23500 fluorescence intensity (a.u.).

For “TTTTTGGGTGGGAGTTGTATTTTTTTAACATGTGGGAAAACGGAGTCACCTAGTGCAG”, the binding signal was 21300 fluorescence intensity (a.u.).

As to “CGCCTCGCCACCTCGCTCACTACCTACCTCTCCACCAATGCGGAGTCACCTAGTGCAG”, the binding signal is 8360 fluorescence intensity (a.u.).

For the sequence “CACCGTCTTTTTAAGTTTGTCATTTGATCCATCATTTTTACGGAGTCACCTAGTGCAG”, the binding signal was 12200 fluorescence intensity (a.u.).

On to “GCCTCGATCGCGGCGGTGGCGGTGGGGAGGGGAGCGCACCCGGAGTCACCTAGTGCAG”, for which the binding signal was 19000 fluorescence intensity (a.u.).

As to “CTAACTTGCAAACTTTGTTGCCTTTATGAATACACATGCTCGGAGTCACCTAGTGCAG”, the binding signal was 8450 fluorescence intensity (a.u.).

In the case of “GAACTCGAGTAAACCAGCAGCTTCTGTTTCTTGGCCACATCGGAGTCACCTAGTGCAG”, the binding signal was 10100 fluorescence intensity (a.u.).

For the sequence “GAGTATTGTGCGTCCATATCCGCTCCGTTTTCGTCCTATACGGAGTCACCTAGTGCAG”, the binding signal was 8750 fluorescence intensity (a.u.).

Turning to “GGCCCTGAATCCCCTACAATCTCTGCCTGACATATAGGGACGGAGTCACCTAGTGCAG”, the binding signal is 8420 fluorescence intensity (a.u.).

Turning to “ATGTCGCTGTGGCTCATCCGGCCCAAGCCCATTTCCCCACCGGAGTCACCTAGTGCAG”, the binding signal is 8910 fluorescence intensity (a.u.).

On to “GGCAAACCACGCGTCTCTCTTTGGTATTCGTCTCTCCATGCGGAGTCACCTAGTGCAG”, for which the binding signal was 10600 fluorescence intensity (a.u.).

For “ACCACCACCACCCCACGCGGGATATATATTAATTAATCAACGGAGTCACCTAGTGCAG”, the binding signal was 10200 fluorescence intensity (a.u.).

On to “CGTTCGCTCATCTCATTCGTCGCGGCCCCTCGCCTCTGAACGGAGTCACCTAGTGCAG”, for which the binding signal is 15000 fluorescence intensity (a.u.).

“GGCGTCTCCGCCCGCCGTCTCGTCTCGTTTCTCATCTCAACGGAGTCACCTAGTGCAG”: the binding signal is 8640 fluorescence intensity (a.u.).

Regarding “CCCCATCCTCCTCTCCTCGCTGCCGTTTGCTTCACTCCCACGGAGTCACCTAGTGCAG”, the binding signal was 11100 fluorescence intensity (a.u.).

In the case of “GGAGGTGGGGACCGGTGTGGAGAGGAGGATTTTATTTTTTCGGAGTCACCTAGTGCAG”, the binding signal was 12000 fluorescence intensity (a.u.).

For the sequence “ATCCTCCTCCTCCGCTTGGGCCATTTTCGGCCCATTCCTTCGGAGTCACCTAGTGCAG”, the binding signal was 8770 fluorescence intensity (a.u.).

Source of the values: publication PMC7819943, “Rice protein-binding microarrays: a tool to detect cis-acting elements near promoter regions in rice”.
